The values below come from article PMC9578143, “Small-Molecule Ebselen Binds to YTHDF Proteins Interfering with the Recognition of N^6-Methyladenosine-Modified RNAs” (ACS Pharmacology & Translational Science, 2022).

For at least one entry, the source does not settle the construct or the ends of the probe. The comparison behind a weaker result is the experiment's own reference, which may not be listed here. Where a protein sequence is shown, tags need not be part of it. At least one verdict was read from the data and is not stated in words by the source.

Series [1] has as its target T1, YTHDF1 YTH domain (human) (UniProt Q9BYJ9).
T1 sequence (looked up): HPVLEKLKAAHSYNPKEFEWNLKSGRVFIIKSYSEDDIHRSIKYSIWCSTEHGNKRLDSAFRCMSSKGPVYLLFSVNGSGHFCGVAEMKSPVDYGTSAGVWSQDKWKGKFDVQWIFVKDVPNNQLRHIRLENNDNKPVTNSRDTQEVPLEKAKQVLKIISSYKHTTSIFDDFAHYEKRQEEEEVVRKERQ
The experiment in a line: AlphaScreen. To be noted: m6A at position 5, REMSA: 20 mM Hepes pH 7.5, 50 mM KCl, BSA, 0.25% glycerol, gel at 4 C, AlphaScreen: 25 mM Hepes pH 7.5, 100 mM NaCl, 0.1% BSA, RT, recombinant protein, residues 365-554, protein details: 6xHis (C-terminal as stated), label: 5'-biotin. On the technique in general: Alpha assays give light when donor and acceptor beads are brought close together.

The target in series [2] is T1, YTHDF1 YTH domain (human). The experiment in a line: EMSA. To be noted: m6A at position 5, REMSA: 20 mM Hepes pH 7.5, 50 mM KCl, BSA, 0.25% glycerol, gel at 4 C, AlphaScreen: 25 mM Hepes pH 7.5, 100 mM NaCl, 0.1% BSA, RT, recombinant protein, residues 365-554, protein details: 6xHis (C-terminal as stated), label: 5'-IRDye-700. On the technique in general: In EMSA bound probe runs differently from free probe, usually more slowly.

Consider CCGAACUGUC [GAm6ACU AlphaScreen probe], for which the binding result in series [1] (50 nM protein, 50 nM RNA, no inhibitor) is “binds”; in series [1] (ebselen 0-100 uM (inhibitor IC50 3.565 uM)), “binds more weakly”; in series [1] (ebsulfur (inhibitor IC50 23.14 uM)), “binds more weakly”.

Regarding CCGAACUGUC [GAm6ACU REMSA probe], the binding result in series [2] (500 nM protein, 2 nM RNA, no ebselen) was “binds”; in series [2] (ebselen 0.1-10 uM, inhibition from 0.1 uM or 1 uM), “binds more weakly”.
